Results are given in words; binding and its absence hold for the method and conditions named. Binding seen in cells or lysates may run through a third protein. Some binding calls cover weakened binding; strength is not graded here. For some of these results: Sequences can lack the tags named with a protein.
Key:
[1] = target: T1, GILZ, endogenous, in whole cell lysates of murine thymocytes (DEX-treated or untreated) (mouse) (UniProt Q9Z2S7); experiment: GST pull-down, Western blot
T1 sequence (looked up): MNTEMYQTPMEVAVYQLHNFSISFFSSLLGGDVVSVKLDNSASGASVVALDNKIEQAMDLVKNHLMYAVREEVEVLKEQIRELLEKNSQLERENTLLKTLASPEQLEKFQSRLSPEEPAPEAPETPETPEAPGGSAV

[2] = target: T1, GILZ, endogenous, in whole cell lysates of murine thymocytes (DEX-treated or untreated) (mouse); experiment: GST pull-down from thymocyte whole cell lysates (DEX treated or untreated), Western blot with α-GILZ
[3] = target: T2, in vitro 35S-labeled full GILZ (full-length mouse GILZ, in vitro translated) (mouse) (UniProt Q9Z2S7); experiment: GST pull-down of in vitro 35S-labeled protein
T2 sequence ([35S]-Methionine label, looked up): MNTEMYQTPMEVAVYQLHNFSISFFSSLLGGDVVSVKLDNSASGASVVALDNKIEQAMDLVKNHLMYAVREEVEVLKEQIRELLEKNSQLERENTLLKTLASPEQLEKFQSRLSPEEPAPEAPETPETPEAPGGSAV

[4] = target: T3, N87A-GILZ, full mouse GILZ in which an Asparagine is mutated in Alanine, in vitro 35S-labeled (mouse) (UniProt Q9Z2S7); experiment: GST pull-down of in vitro 35S-labeled protein
T3 sequence ([35S]-Methionine label, looked up): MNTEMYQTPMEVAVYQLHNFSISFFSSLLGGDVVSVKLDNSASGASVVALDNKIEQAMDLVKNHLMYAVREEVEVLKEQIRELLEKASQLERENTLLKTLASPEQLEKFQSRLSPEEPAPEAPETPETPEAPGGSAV

[5] = target: Raf (Raf-1), endogenous, in extracts of mouse cells (3DO cells, thymocytes, T cells of spleen and lymph nodes) (mouse) (UniProt Q99N57); experiment: GST pull-down from 3DO whole cell extracts, Western blot
[6] = target: Raf (Raf-1), endogenous, in extracts of mouse cells (3DO cells, thymocytes, T cells of spleen and lymph nodes) (mouse) (UniProt Q99N57); experiment: GST pull-down from 3DO cell extracts (DEX treated or untreated), Western blot
[7] = target: GST-Raf-RBD, GST fusion protein comprising the Ras Binding Domain of human Raf (Raf-RBD, residues 1-149) (human) (UniProt P04049); experiment: competition in GST pull-down: increasing amount of GILZ against Ras of COS-7 extracts on GST-Raf-RBD; Western blot
[8] = target: Raf (Raf-1), endogenous, in extracts of mouse cells (3DO cells, thymocytes, T cells of spleen and lymph nodes) (mouse) (UniProt Q99N57); experiment: co-immunoprecipitation from murine thymocyte lysates with α-Raf, Western blot with α-GILZ
[9] = target: human Raf expressed from pUSEamp-Raf in COS-7 cells (human) (UniProt P04049); experiment: co-immunoprecipitation from transfected COS-7 lysates with α-Myc, Western blot with α-Raf
[10] = target: human Raf expressed from pUSEamp-Raf in COS-7 cells (human) (UniProt P04049); experiment: co-immunoprecipitation from transfected COS-7 lysates, Western blot

Molecule: GST-Raf-RBD, GST fusion protein comprising the Ras Binding Domain of human Raf (Raf-RBD, residues 1-149) (from UniProt P04049 1-149)
- binding [1]: binds
- binding [2]: binds
- binding [3]: binds
- binding [4]: binds

B1: Glutathione S-transferase GILZ fusion protein (GST-GILZ), containing entire mouse GILZ (other, UniProt Q9Z2S7 1-137, looked up)
chain: MNTEMYQTPMEVAVYQLHNFSISFFSSLLGGDVVSVKLDNSASGASVVALDNKIEQAMDLVKNHLMYAVREEVEVLKEQIRELLEKNSQLERENTLLKTLASPEQLEKFQSRLSPEEPAPEAPETPETPEAPGGSAV
notes: range 1-137; Immobilised on glutathione Sepharose beads; Prepared as in Ayroldi E et al., 2001; not shown: Glutathione S-transferase (GST) encoded by the pGEX-4T2 plasmid (Pharmacia)
- binding [5]: binds
- binding [6]: binds

B2: E. coli expressed mouse GILZ (protein, UniProt Q9Z2S7 1-137, looked up)
chain: MNTEMYQTPMEVAVYQLHNFSISFFSSLLGGDVVSVKLDNSASGASVVALDNKIEQAMDLVKNHLMYAVREEVEVLKEQIRELLEKNSQLERENTLLKTLASPEQLEKFQSRLSPEEPAPEAPETPETPEAPGGSAV
- binding [7]: binds

B3: GILZ, endogenous, in whole cell lysates of murine thymocytes (DEX-treated or untreated) (other, mouse, UniProt Q9Z2S7 1-137, looked up)
chain: MNTEMYQTPMEVAVYQLHNFSISFFSSLLGGDVVSVKLDNSASGASVVALDNKIEQAMDLVKNHLMYAVREEVEVLKEQIRELLEKNSQLERENTLLKTLASPEQLEKFQSRLSPEEPAPEAPETPETPEAPGGSAV
notes: also called mGILZ
- binding [8]: binds

B4: Myc-tagged GILZ (full-length mouse GILZ expressed from pcDNA3.1/Myc-His in COS-7 cells) (protein, UniProt Q9Z2S7 1-137, looked up, not shown: small tags and cut ends)
chain: MNTEMYQTPMEVAVYQLHNFSISFFSSLLGGDVVSVKLDNSASGASVVALDNKIEQAMDLVKNHLMYAVREEVEVLKEQIRELLEKNSQLERENTLLKTLASPEQLEKFQSRLSPEEPAPEAPETPETPEAPGGSAV
- binding [9]: binds
- binding [10]: binds

— patent publication US20050164906A1 (APPLIED RESEARCH SYSTEMS ARS HOLDING N V, published 2005)
